# In the supplement of paper PMC8728848:
# This is one part of the list.
# B1: Clec18A (Homo sapiens) (protein)
# chain: PFHTCDLRIDGDCFMVSSEADTYYRARMKCQRKGGVLAQIKRQKVQDILAFYLGRLETTNEVIDSDFETRNFWIGLTYKTAKDSFRWATGEHQAFTSFAFGQPDNHGFGNCVELQASAAFNWNDQRCKTRNRYICQ
# Experiments:
# Assay in all cases: glycan array binding signal (z-score within array); higher = stronger binding
# Details in all cases: glycan notation: IUPAC condensed, linker removed
# [1] = target: Fuc(a1-2)[Gal(a1-3)]Gal(b1-4)GlcNAc(b1-2)Man(a1-3)[Fuc(a1-2)[Gal(a1-3)]Gal(b1-4)GlcNAc(b1-2)Man(a1-6)]Man(b1-4)GlcNAc(b1-4)[Fuc(a1-6)]GlcNAc
# How it was run: (§1)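 Arrays were curated from the Consortium for Functional Glycomics database, 3228 in total, and kept only where the protein sequence was available. Binding is expressed as a within-array Z-score. This score was averaged across arrays of the same protein sequence at different concentrations or buffers and across linkers, and negative values can be read as non-binding.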
# [2] = target: Fuc(a1-2)[Gal(a1-3)]Gal(b1-4)GlcNAc(b1-3)GalNAc
# How it was run: as §1
# [3] = target: Fuc(a1-2)[Gal(a1-3)]Gal(b1-4)GlcNAc(b1-3)[Fuc(a1-2)[Gal(a1-3)]Gal(b1-4)GlcNAc(b1-6)]GalNAc
# How it was run: as §1
# [4] = target: Fuc(a1-2)[Gal(a1-3)]Gal(b1-4)GlcNAc(b1-6)GalNAc
# How it was run: as §1
# [5] = target: Fuc(a1-2)[Gal(a1-3)]Gal(b1-4)[Fuc(a1-3)]Glc
# How it was run: as §1
# [6] = target: Fuc(a1-2)[Gal(a1-3)]Gal(b1-4)[Fuc(a1-3)]GlcNAc
# How it was run: as §1
# [7] = target: Fuc(a1-2)[Gal(a1-3)]Gal(b1-4)[Fuc(a1-3)]GlcNAc(b1-3)GalNAc
# How it was run: as §1
# [8] = target: Fuc(a1-2)[Gal(a1-4)]Gal(b1-4)GlcNAc
# How it was run: as §1
# [9] = target: Fuc(a1-2)[GalNAc(a1-3)]Gal
# How it was run: as §1
# [10] = target: Fuc(a1-2)[GalNAc(a1-3)]Gal(b1-3)GalNAc(a1-3)[Fuc(a1-2)]Gal(b1-4)GlcNAc
# How it was run: as §1
# [11] = target: Fuc(a1-2)[GalNAc(a1-3)]Gal(b1-3)GalNAc(b1-3)Gal(a1-4)Gal(b1-4)Glc
# How it was run: as §1
# [12] = target: Fuc(a1-2)[GalNAc(a1-3)]Gal(b1-3)GlcNAc
# How it was run: as §1
# [13] = target: Fuc(a1-2)[GalNAc(a1-3)]Gal(b1-3)GlcNAc(b1-2)Man(a1-3)[Fuc(a1-2)[GalNAc(a1-3)]Gal(b1-3)GlcNAc(b1-2)Man(a1-6)]Man(b1-4)GlcNAc(b1-4)GlcNAc
# How it was run: as §1
# [14] = target: Fuc(a1-2)[GalNAc(a1-3)]Gal(b1-3)GlcNAc(b1-2)Man(a1-3)[Fuc(a1-2)[GalNAc(a1-3)]Gal(b1-3)GlcNAc(b1-2)Man(a1-6)]Man(b1-4)GlcNAc(b1-4)[Fuc(a1-6)]GlcNAc
# How it was run: as §1
# [15] = target: Fuc(a1-2)[GalNAc(a1-3)]Gal(b1-3)GlcNAc(b1-3)GalNAc
# How it was run: as §1
# [16] = target: Fuc(a1-2)[GalNAc(a1-3)]Gal(b1-3)GlcNAc(b1-6)GalNAc
# How it was run: as §1
# [17] = target: Fuc(a1-2)[GalNAc(a1-3)]Gal(b1-4)Glc
# How it was run: as §1
# [18] = target: Fuc(a1-2)[GalNAc(a1-3)]Gal(b1-4)GlcNAc
# How it was run: as §1
# [19] = target: Fuc(a1-2)[GalNAc(a1-3)]Gal(b1-4)GlcNAc(b1-2)Man
# How it was run: as §1
# [20] = target: Fuc(a1-2)[GalNAc(a1-3)]Gal(b1-4)GlcNAc(b1-2)Man(a1-3)[Fuc(a1-2)[GalNAc(a1-3)]Gal(b1-4)GlcNAc(b1-2)Man(a1-6)]Man(b1-4)GlcNAc(b1-4)GlcNAc
# How it was run: as §1
# [21] = target: Fuc(a1-2)[GalNAc(a1-3)]Gal(b1-4)GlcNAc(b1-2)Man(a1-3)[Fuc(a1-2)[GalNAc(a1-3)]Gal(b1-4)GlcNAc(b1-2)Man(a1-6)]Man(b1-4)GlcNAc(b1-4)[Fuc(a1-6)]GlcNAc
# How it was run: as §1
# [22] = target: Fuc(a1-2)[GalNAc(a1-3)]Gal(b1-4)GlcNAc(b1-3)Gal(b1-4)GlcNAc
# How it was run: as §1
# [23] = target: Fuc(a1-2)[GalNAc(a1-3)]Gal(b1-4)GlcNAc(b1-3)Gal(b1-4)GlcNAc(b1-3)Gal(b1-4)GlcNAc
# How it was run: as §1
# [24] = target: Fuc(a1-2)[GalNAc(a1-3)]Gal(b1-4)GlcNAc(b1-3)GalNAc
# How it was run: as §1
# [25] = target: Fuc(a1-2)[GalNAc(a1-3)]Gal(b1-4)GlcNAc(b1-3)[Fuc(a1-2)[GalNAc(a1-3)]Gal(b1-4)GlcNAc(b1-6)]GalNAc
# How it was run: as §1
# [26] = target: Fuc(a1-2)[GalNAc(a1-3)]Gal(b1-4)GlcNAc(b1-6)GalNAc
# How it was run: as §1
# [27] = target: Fuc(a1-2)[GalNAc(a1-3)]Gal(b1-4)[Fuc(a1-3)]GlcNAc
# How it was run: as §1
# [28] = target: Fuc(a1-2)[GalNAc(a1-3)]Gal(b1-4)[Fuc(a1-3)]GlcNAc(b1-3)GalNAc
# How it was run: as §1
# [29] = target: Fuc(a1-2)[GalNAc(a1-4)]Gal(b1-4)GlcNAc
# How it was run: as §1
# [30] = target: Fuc(a1-2)[GalNAc(b1-3)]Gal
# How it was run: as §1
# Fuc(a1-3)GlcNAc = target: Fuc(a1-3)GlcNAc
# How it was run: as §1
# [31] = target: Fuc(a1-3)[Gal(b1-4)]Glc6S
# How it was run: as §1
# [32] = target: Fuc(a1-3)[Gal(b1-4)]GlcNAc
# How it was run: as §1
# [33] = target: Fuc(a1-3)[Gal(b1-4)]GlcNAc(b1-2)Man
# How it was run: as §1
# [34] = target: Fuc(a1-3)[Gal(b1-4)]GlcNAc(b1-2)Man(a1-3)[Fuc(a1-3)[Gal(b1-4)]GlcNAc(b1-2)Man(a1-6)]Man(b1-4)GlcNAc(b1-4)GlcNAc
# How it was run: as §1
# [35] = target: Fuc(a1-3)[Gal(b1-4)]GlcNAc(b1-2)Man(a1-3)[Fuc(a1-3)[Gal(b1-4)]GlcNAc(b1-2)Man(a1-6)]Man(b1-4)GlcNAc(b1-4)[Fuc(a1-6)]GlcNAc
# How it was run: as §1
# [36] = target: Fuc(a1-3)[Gal(b1-4)]GlcNAc(b1-3)Gal(b1-3)[Fuc(a1-4)]GlcNAc
# How it was run: as §1
# [37] = target: Fuc(a1-3)[Gal(b1-4)]GlcNAc(b1-3)Gal(b1-4)[Fuc(a1-3)]GlcNAc
# How it was run: as §1
# [38] = target: Fuc(a1-3)[Gal(b1-4)]GlcNAc(b1-3)Gal(b1-4)[Fuc(a1-3)]GlcNAc(b1-3)Gal(b1-4)[Fuc(a1-3)]GlcNAc
# How it was run: as §1
# [39] = target: Fuc(a1-3)[Gal(b1-4)]GlcNAc(b1-3)GalNAc
# How it was run: as §1
# [40] = target: Fuc(a1-3)[Gal(b1-4)]GlcNAc(b1-6)GalNAc
# How it was run: as §1
# [41] = target: Fuc(a1-3)[Gal(b1-4)]GlcNAc(b1-6)[Gal(b1-3)GlcNAc(b1-3)]Gal(b1-4)Glc
# How it was run: as §1
# [42] = target: Fuc(a1-3)[Gal(b1-4)]GlcNAc6S
# How it was run: as §1
# [43] = target: Fuc(a1-3)[Gal3S(b1-4)]Glc
# How it was run: as §1
# [44] = target: Fuc(a1-3)[Gal3S(b1-4)]GlcNAc
# How it was run: as §1
binder,measurement,setting,value
B1,glycan array binding signal (z-score),[1],-0.426
same,glycan array binding signal (z-score),[2],0.207
same,glycan array binding signal (z-score),[3],-0.697
same,glycan array binding signal (z-score),[4],-0.183
same,glycan array binding signal (z-score),[5],-0.915
same,glycan array binding signal (z-score),[6],-0.456
same,glycan array binding signal (z-score),[7],-0.039
same,glycan array binding signal (z-score),[8],-0.801
same,glycan array binding signal (z-score),[9],0.557
same,glycan array binding signal (z-score),[10],0.205
same,glycan array binding signal (z-score),[11],-0.845
same,glycan array binding signal (z-score),[12],-0.377
same,glycan array binding signal (z-score),[13],-0.538
same,glycan array binding signal (z-score),[14],0.059
same,glycan array binding signal (z-score),[15],-0.79
same,glycan array binding signal (z-score),[16],-0.729
same,glycan array binding signal (z-score),[17],-0.549
same,glycan array binding signal (z-score),[18],-0.156
same,glycan array binding signal (z-score),[19],-0.346
same,glycan array binding signal (z-score),[20],4.62
same,glycan array binding signal (z-score),[21],-0.644
same,glycan array binding signal (z-score),[22],-0.808
same,glycan array binding signal (z-score),[23],-0.814
same,glycan array binding signal (z-score),[24],0.596
same,glycan array binding signal (z-score),[25],0.135
same,glycan array binding signal (z-score),[26],-0.523
same,glycan array binding signal (z-score),[27],-0.083
same,glycan array binding signal (z-score),[28],-0.08
same,glycan array binding signal (z-score),[29],0.698
same,glycan array binding signal (z-score),[30],1.09
same,glycan array binding signal (z-score),Fuc(a1-3)GlcNAc,-0.783
same,glycan array binding signal (z-score),[31],0.584
same,glycan array binding signal (z-score),[32],-0.361
same,glycan array binding signal (z-score),[33],-0.329
same,glycan array binding signal (z-score),[34],-0.573
same,glycan array binding signal (z-score),[35],1.33
same,glycan array binding signal (z-score),[36],0.071
same,glycan array binding signal (z-score),[37],0.611
same,glycan array binding signal (z-score),[38],-0.768
same,glycan array binding signal (z-score),[39],-0.458
same,glycan array binding signal (z-score),[40],-0.667
same,glycan array binding signal (z-score),[41],-0.392
same,glycan array binding signal (z-score),[42],0.42
same,glycan array binding signal (z-score),[43],-0.058
same,glycan array binding signal (z-score),[44],0.178
